From the supplement of paper PMC10849652
Some of the results follow.

By UniProt entry, the sequences of proteins in these tests, tags left out. Where a name states a change or a piece, a line headed by the entry shows the natural chain unless it says otherwise.
UniProt P01034: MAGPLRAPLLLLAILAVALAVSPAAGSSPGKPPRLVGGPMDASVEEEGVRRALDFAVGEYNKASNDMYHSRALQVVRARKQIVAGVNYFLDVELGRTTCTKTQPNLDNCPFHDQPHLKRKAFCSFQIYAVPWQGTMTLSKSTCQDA
UniProt P67870, whole entry, looked up: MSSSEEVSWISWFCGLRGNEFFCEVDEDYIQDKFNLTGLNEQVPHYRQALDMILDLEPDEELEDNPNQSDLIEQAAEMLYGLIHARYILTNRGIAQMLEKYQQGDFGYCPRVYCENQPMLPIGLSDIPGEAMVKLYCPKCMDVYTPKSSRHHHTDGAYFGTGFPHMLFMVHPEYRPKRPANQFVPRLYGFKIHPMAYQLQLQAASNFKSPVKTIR
UniProt Q5TZA2: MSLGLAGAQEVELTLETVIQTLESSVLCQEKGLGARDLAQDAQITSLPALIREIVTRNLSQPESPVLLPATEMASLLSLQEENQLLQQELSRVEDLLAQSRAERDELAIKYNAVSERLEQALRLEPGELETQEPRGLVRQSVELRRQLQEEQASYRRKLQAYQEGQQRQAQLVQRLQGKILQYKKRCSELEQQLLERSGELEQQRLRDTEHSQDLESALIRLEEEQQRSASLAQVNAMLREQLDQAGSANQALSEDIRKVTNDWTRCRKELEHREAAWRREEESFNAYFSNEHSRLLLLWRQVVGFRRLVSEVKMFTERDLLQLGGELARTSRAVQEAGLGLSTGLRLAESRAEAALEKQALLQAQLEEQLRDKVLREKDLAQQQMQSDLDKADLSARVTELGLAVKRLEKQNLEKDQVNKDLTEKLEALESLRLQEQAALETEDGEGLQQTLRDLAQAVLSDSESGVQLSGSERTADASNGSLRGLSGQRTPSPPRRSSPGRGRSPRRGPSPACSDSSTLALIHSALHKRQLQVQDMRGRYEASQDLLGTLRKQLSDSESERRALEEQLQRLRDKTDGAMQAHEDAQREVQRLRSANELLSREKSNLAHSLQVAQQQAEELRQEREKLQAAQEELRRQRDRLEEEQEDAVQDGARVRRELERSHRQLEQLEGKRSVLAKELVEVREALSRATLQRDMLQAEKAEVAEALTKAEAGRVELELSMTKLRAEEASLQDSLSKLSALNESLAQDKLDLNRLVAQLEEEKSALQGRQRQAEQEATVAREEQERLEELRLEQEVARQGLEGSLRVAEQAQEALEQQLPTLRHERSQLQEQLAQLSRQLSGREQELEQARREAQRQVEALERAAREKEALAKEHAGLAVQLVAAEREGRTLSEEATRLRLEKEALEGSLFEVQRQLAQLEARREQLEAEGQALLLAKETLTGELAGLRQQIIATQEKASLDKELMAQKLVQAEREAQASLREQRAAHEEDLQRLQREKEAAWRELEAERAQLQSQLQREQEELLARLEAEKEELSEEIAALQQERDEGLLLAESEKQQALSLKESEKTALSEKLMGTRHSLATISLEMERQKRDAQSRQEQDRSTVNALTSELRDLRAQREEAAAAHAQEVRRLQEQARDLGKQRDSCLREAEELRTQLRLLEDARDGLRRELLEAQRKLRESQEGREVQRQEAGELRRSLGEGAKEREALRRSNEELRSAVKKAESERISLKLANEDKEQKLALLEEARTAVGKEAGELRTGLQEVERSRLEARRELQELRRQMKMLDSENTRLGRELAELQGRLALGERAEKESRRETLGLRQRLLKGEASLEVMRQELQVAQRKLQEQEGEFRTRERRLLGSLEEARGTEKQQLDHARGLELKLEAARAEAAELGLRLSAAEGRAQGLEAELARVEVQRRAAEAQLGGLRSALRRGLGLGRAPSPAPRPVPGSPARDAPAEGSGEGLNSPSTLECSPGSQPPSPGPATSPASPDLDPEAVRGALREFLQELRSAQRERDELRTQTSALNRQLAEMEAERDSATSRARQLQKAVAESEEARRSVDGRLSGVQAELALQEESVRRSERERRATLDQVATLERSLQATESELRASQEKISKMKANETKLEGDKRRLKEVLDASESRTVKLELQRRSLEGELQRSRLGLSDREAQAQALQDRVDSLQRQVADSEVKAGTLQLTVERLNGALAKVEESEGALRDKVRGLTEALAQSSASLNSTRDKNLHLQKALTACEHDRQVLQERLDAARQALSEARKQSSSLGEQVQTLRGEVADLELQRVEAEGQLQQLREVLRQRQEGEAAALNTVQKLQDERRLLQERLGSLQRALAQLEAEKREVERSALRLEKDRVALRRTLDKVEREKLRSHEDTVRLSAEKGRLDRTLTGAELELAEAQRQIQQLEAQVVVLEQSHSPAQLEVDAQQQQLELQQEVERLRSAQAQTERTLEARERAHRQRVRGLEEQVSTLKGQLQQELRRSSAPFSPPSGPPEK
UniProt Q70SY1: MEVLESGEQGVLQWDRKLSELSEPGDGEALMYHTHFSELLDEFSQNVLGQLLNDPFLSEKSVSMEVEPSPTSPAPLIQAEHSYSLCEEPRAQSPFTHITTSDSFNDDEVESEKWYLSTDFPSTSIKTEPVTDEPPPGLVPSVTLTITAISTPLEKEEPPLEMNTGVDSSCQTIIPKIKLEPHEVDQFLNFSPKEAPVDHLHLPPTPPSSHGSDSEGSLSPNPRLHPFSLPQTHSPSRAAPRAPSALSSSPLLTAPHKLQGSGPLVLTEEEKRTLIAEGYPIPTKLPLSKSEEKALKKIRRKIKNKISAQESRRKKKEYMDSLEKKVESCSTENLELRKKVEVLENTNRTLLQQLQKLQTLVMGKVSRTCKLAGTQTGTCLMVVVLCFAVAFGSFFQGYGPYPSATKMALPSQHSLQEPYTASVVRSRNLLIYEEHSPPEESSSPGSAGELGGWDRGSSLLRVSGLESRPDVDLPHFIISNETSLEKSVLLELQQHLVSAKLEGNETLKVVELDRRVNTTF
UniProt Q96HD1: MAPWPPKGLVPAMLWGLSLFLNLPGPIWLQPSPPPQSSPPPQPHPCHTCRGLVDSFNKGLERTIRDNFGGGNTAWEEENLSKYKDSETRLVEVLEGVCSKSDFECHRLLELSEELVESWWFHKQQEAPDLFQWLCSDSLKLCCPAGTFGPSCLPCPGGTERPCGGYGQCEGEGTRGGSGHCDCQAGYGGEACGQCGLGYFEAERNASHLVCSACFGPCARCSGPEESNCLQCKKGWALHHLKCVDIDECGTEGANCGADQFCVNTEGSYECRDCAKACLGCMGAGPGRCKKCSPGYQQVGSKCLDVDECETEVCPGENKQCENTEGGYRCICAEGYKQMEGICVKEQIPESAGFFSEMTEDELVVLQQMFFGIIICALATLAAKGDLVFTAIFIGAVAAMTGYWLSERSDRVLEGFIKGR
UniProt P55060: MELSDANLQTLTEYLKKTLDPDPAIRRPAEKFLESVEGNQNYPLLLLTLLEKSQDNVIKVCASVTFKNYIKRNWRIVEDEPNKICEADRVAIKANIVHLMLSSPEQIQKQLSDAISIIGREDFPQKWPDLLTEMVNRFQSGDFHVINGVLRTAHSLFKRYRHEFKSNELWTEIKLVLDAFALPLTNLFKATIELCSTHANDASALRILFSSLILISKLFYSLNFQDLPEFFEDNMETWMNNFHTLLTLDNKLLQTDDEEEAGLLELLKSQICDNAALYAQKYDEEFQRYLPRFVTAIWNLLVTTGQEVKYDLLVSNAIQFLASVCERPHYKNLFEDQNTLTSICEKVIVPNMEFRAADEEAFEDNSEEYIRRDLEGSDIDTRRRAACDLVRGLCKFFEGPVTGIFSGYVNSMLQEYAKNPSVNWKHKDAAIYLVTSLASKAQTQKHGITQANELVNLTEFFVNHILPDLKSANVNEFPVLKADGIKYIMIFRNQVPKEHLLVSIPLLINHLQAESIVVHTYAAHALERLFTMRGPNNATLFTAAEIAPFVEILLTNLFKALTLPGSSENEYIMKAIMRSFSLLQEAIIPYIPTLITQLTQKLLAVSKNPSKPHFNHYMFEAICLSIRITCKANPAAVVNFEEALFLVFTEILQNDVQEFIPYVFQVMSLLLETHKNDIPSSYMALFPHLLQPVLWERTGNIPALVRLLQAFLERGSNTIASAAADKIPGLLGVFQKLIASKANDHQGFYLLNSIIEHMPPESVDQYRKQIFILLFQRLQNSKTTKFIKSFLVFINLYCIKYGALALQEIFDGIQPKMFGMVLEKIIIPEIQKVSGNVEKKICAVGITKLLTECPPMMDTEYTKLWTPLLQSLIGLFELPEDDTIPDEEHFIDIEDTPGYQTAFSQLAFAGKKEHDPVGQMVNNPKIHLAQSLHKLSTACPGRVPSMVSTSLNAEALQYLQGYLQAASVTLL
UniProt Q8NBI2: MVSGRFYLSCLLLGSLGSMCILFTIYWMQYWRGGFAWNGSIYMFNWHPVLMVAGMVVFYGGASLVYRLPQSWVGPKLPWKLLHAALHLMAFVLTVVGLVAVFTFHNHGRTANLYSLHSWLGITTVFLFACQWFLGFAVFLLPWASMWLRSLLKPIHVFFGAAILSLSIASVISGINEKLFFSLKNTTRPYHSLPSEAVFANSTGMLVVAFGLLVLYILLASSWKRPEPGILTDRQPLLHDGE
UniProt Q9P021, whole entry, looked up: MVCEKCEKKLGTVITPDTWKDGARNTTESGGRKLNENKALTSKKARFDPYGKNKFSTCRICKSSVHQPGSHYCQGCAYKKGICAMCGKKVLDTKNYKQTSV
UniProt P13498: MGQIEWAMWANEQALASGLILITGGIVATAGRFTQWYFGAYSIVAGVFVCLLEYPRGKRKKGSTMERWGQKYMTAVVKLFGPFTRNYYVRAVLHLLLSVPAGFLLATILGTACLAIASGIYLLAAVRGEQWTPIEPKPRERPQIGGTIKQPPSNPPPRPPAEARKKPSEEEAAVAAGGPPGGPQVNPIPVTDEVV
UniProt Q13617, whole entry, looked up: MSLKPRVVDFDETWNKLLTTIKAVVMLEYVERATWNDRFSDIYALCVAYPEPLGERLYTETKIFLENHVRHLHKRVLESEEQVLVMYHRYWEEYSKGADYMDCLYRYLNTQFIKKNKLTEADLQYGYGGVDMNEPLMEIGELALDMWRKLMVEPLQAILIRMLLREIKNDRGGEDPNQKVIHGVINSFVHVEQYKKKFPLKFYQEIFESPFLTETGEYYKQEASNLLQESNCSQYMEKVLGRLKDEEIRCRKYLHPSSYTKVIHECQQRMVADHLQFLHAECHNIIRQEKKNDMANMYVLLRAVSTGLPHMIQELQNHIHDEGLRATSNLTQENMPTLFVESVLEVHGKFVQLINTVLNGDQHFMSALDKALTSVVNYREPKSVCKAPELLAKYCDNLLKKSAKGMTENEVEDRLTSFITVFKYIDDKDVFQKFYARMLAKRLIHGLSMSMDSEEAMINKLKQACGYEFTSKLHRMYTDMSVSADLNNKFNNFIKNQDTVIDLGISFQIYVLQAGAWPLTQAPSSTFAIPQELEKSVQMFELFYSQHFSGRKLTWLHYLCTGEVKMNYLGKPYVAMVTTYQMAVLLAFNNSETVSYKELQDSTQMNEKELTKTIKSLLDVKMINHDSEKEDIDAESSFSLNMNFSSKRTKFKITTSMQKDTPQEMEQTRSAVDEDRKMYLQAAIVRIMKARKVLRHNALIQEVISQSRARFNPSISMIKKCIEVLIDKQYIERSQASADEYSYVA
UniProt Q13619, whole entry, looked up: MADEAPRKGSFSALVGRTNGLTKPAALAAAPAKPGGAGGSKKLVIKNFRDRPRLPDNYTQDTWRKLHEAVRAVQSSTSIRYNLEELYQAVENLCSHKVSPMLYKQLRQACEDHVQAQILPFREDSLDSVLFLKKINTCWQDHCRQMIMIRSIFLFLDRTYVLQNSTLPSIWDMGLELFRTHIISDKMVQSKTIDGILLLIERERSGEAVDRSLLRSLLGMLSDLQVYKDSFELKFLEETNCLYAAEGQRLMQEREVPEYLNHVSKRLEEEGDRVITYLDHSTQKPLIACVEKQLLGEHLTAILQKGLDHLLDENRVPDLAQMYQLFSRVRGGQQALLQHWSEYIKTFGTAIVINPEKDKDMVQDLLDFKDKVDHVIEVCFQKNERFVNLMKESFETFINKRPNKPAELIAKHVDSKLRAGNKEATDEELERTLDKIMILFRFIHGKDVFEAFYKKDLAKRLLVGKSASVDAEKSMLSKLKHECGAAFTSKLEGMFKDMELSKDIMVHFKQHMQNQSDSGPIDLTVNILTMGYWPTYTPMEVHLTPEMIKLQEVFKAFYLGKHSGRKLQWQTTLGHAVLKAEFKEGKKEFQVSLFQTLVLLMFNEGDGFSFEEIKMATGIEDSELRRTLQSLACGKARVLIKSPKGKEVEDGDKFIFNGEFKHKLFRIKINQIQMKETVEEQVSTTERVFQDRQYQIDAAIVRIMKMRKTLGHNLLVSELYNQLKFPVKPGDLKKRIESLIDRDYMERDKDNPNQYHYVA
UniProt O75629: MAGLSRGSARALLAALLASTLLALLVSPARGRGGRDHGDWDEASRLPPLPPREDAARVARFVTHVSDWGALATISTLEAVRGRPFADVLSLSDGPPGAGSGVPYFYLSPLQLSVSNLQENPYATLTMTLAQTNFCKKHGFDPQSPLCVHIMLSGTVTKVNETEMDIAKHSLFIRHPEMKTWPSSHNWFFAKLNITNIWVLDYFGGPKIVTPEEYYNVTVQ

What was measured:
Test in all cases: log2 fold change, soluble protein after heating vs DMSO (PISA); higher = thermal stabilisation; K562 lysate, 10 uM; active = over 0.2 and 3.5 SD of the protein, either way, in both replicates (recomputed)
alvocidib = compound: CN1CC[C@H](c2c(O)cc(O)c3c(=O)cc(-c4ccccc4Cl)oc23)[C@H](O)C1 [alvocidib]
Procedure, shortened: (§1)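 The values are log-two fold changes in thermal stability compared with solvent controls and come from duplicates. They were obtained by TMTpro 16plex LC-MS/MS, with channel sums equalised, on the supernatant after 21,000xg for 90 min. That supernatant came from crude K562 extract at 1 mg/mL protein treated with 10 μM compound for 30 min, heated for 3 min across 48°C-58°C, pooled and brought to 0.5% NP-40 at 4°C.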

Tubastatin A = compound: CN1CCc2c(c3ccccc3n2Cc2ccc(C(=O)NO)cc2)C1 [Tubastatin A]
Procedure, shortened: as §1

[1] = compound: CNC(=O)C1=CC=CC=C1NC2=NC(=NC=C2Cl)NC3=C(C=C(C=C3)N4CCOCC4)OC
Procedure, shortened: as §1

defactinib = compound: CNC(=O)c1ccc(Nc2ncc(C(F)(F)F)c(NCc3nccnc3N(C)S(C)(=O)=O)n2)cc1 [defactinib]
Procedure, shortened: as §1

[2] = compound: CNc1nc(-c2ccc3c(N)n[nH]c3c2)cc(N2C[C@@H](C(=O)NC3CCCCC3)CC[C@H]2C)n1
Procedure, shortened: as §1

encorafenib = compound: COC(=O)N[C@@H](C)CNc1nccc(-c2cn(C(C)C)nc2-c2cc(Cl)cc(NS(C)(=O)=O)c2F)n1 [encorafenib]
Procedure, shortened: as §1

[3] = compound: COC(=O)[C@H](CCSC)NC(=O)C1=C(C=C(C=C1)NC[C@H](CS)N)C2=CC=CC=C2
Procedure, shortened: as §1

alisertib = compound: COc1cc(Nc2ncc3c(n2)-c2ccc(Cl)cc2C(c2c(F)cccc2OC)=NC3)ccc1C(=O)O [alisertib]
Procedure, shortened: as §1

[4] = compound: COc1cc2nc(-c3cc(F)ccc3O)nc(N[C@@H]3CNC[C@H]3C(C)(C)O)c2cc1OC
Procedure, shortened: as §1

gefitinib = compound: COc1cc2ncnc(Nc3ccc(F)c(Cl)c3)c2cc1OCCCN1CCOCC1 [gefitinib]
Procedure, shortened: as §1

Measured: log2 fold change

CSTF1 (UniProt Q05048)
inactive: alvocidib 0.008 | Tubastatin A -0.01 | [1] 0.006 | defactinib -0.008 | [2] -0.064 | encorafenib 0.021 | [3] -0.079 | alisertib 0.031 | [4] 0.004 | gefitinib 0.022

CTSB (UniProt P07858)
inactive: alvocidib 0.004 | Tubastatin A 0.001 | [1] -0.034 | defactinib 0.023 | [2] -0.049 | encorafenib -0.025 | [3] 0.072 | alisertib -0.029 | [4] 0.024 | gefitinib 0.001

CSNK1G2 (UniProt P78368)
inactive: alvocidib -0.052 | Tubastatin A 0.001 | [1] 0.056 | defactinib 0.166 | [2] -0.06 | encorafenib 0.054 | [3] -0.132 | alisertib -0.101 | [4] 0.318 | gefitinib 0.027

CRBN (UniProt Q96SW2)
inactive: alvocidib -0.035 | Tubastatin A -0.003 | [1] -0.041 | defactinib -0.039 | [2] 0.011 | encorafenib -0.021 | [3] -0.02 | alisertib 0.012 | [4] 0.018 | gefitinib 0.018

CUL1 (UniProt Q13616)
inactive: alvocidib -0.008 | Tubastatin A 0.008 | [1] 0.001 | defactinib -0.019 | [2] 0.013 | encorafenib 0 | [3] -0.042 | alisertib -0.01 | [4] 0.011 | gefitinib -0.038

CST3 (UniProt P01034)
inactive: alvocidib -0.096 | Tubastatin A 0.151 | [1] -0.018 | defactinib -0.042 | [2] -0.049 | encorafenib 0.04 | [3] -0.022 | alisertib 0.046 | [4] 0.021 | gefitinib 0.025

CSNK2B (UniProt P67870)
active: [1] 0.324
inactive: alvocidib -0.005 | Tubastatin A -0.012 | defactinib 0.025 | [2] 0.053 | encorafenib -0.026 | [3] -0.006 | alisertib -0.054 | [4] 0.052 | gefitinib -0.022

CROCC (UniProt Q5TZA2)
inactive: alvocidib -0.233 | Tubastatin A 0.021 | [1] -0.048 | defactinib -0.019 | [2] 0.142 | encorafenib -0.04 | [3] 0.035 | alisertib -0.074 | [4] 0.126 | gefitinib 0.076

CSNK2A2 (UniProt P19784)
inactive: alvocidib 0.101 | Tubastatin A -0.059 | [1] 0.321 | defactinib 0.172 | [2] -0.022 | encorafenib -0.047 | [3] 0.012 | alisertib 0.078 | [4] 0.135 | gefitinib 0.004

CUX1 isoform 3 (UniProt P39880)
inactive: alvocidib -0.03 | Tubastatin A 0.003 | [1] 0.055 | defactinib -0.006 | [2] 0.005 | encorafenib 0 | [3] 0 | alisertib 0.067 | [4] -0.042 | gefitinib 0.014

CREB3L2 (UniProt Q70SY1)
inactive: alvocidib -0.065 | Tubastatin A 0.084 | [1] 0.011 | defactinib -0.066 | [2] 0.139 | encorafenib -0.012 | [3] 0.023 | alisertib -0.093 | [4] 0.012 | gefitinib -0.16

CRELD1 isoform 2 (UniProt Q96HD1)
inactive: alvocidib -0.012 | Tubastatin A 0.005 | [1] 0 | defactinib 0.052 | [2] 0.027 | encorafenib 0.016 | [3] -0.035 | alisertib 0.037 | [4] 0.023 | gefitinib 0.193

CSE1L (UniProt P55060)
inactive: alvocidib 0.002 | Tubastatin A -0.009 | [1] -0.002 | defactinib -0.003 | [2] -0.002 | encorafenib -0.041 | [3] 0.017 | alisertib -0.001 | [4] 0.021 | gefitinib -0.009

2 records drawn at random from those above:
CUX1 isoform 3 (UniProt P39880)
inactive: alvocidib -0.03 | Tubastatin A 0.003 | [1] 0.055 | defactinib -0.006 | [2] 0.005 | encorafenib 0 | [3] 0 | alisertib 0.067 | [4] -0.042 | gefitinib 0.014

CSNK2A2 (UniProt P19784)
inactive: alvocidib 0.101 | Tubastatin A -0.059 | [1] 0.321 | defactinib 0.172 | [2] -0.022 | encorafenib -0.047 | [3] 0.012 | alisertib 0.078 | [4] 0.135 | gefitinib 0.004

(next part)

CTPS1 (UniProt P17812)
inactive: alvocidib 0.006 | Tubastatin A -0.101 | [1] -0.021 | defactinib 0 | [2] -0.048 | encorafenib 0.016 | [3] 0.038 | alisertib -0.019 | [4] -0.001 | gefitinib -0.015

CTCF (UniProt P49711)
inactive: alvocidib 0.074 | Tubastatin A 0.034 | [1] 0.018 | defactinib -0.016 | [2] -0.012 | encorafenib -0.02 | [3] -0.047 | alisertib 0.001 | [4] -0.008 | gefitinib 0.047

CYB561A3 isoform 2 (UniProt Q8NBI2)
inactive: alvocidib -0.112 | Tubastatin A 0.011 | [1] -0.042 | defactinib -0.028 | [2] -0.002 | encorafenib -0.034 | [3] 0.025 | alisertib -0.034 | [4] 0.072 | gefitinib 0.015

CRIPT (UniProt Q9P021)
inactive: alvocidib 0.071 | Tubastatin A 0.11 | [1] -0.016 | defactinib 0.063 | [2] 0.044 | encorafenib -0.039 | [3] -0.029 | alisertib 0.01 | [4] -0.155 | gefitinib -0.014

CYBA (UniProt P13498)
inactive: alvocidib 0.036 | Tubastatin A 0.018 | [1] 0.065 | defactinib -0.071 | [2] 0.01 | encorafenib 0.037 | [3] -0.073 | alisertib -0.071 | [4] -0.139 | gefitinib 0.04

CYB5R3 isoform 3 (UniProt P00387)
inactive: alvocidib 0.029 | Tubastatin A 0.051 | [1] -0.018 | defactinib -0.023 | [2] -0.041 | encorafenib 0.024 | [3] 0.051 | alisertib 0.013 | [4] 0.036 | gefitinib 0.041

CUL2 isoform 2 (UniProt Q13617)
inactive: alvocidib 0.012 | Tubastatin A -0.016 | [1] 0.029 | defactinib 0.012 | [2] -0.01 | encorafenib 0.004 | [3] 0.002 | alisertib -0.016 | [4] -0.012 | gefitinib -0.016

CUEDC2 (UniProt Q9H467)
inactive: alvocidib 0.054 | Tubastatin A 0.036 | [1] 0.03 | defactinib 0.055 | [2] 0.078 | encorafenib 0.006 | [3] -0.026 | alisertib -0.019 | [4] -0.009 | gefitinib 0.019

CTBP2 isoform 2 (UniProt P56545)
inactive: alvocidib 0.01 | Tubastatin A -0.048 | [1] 0.034 | defactinib -0.016 | [2] -0.017 | encorafenib -0.072 | [3] 0.019 | alisertib 0.055 | [4] 0.001 | gefitinib 0.004

CTNNB1 (UniProt P35222)
inactive: alvocidib -0.035 | Tubastatin A -0.016 | [1] -0.006 | defactinib 0.194 | [2] 0 | encorafenib 0.061 | [3] -0.062 | alisertib 0.038 | [4] -0.03 | gefitinib -0.002

CREBBP (UniProt Q92793)
inactive: alvocidib 0.018 | Tubastatin A -0.009 | [1] -0.017 | defactinib 0.025 | [2] -0.01 | encorafenib 0.053 | [3] -0.004 | alisertib -0.045 | [4] -0.107 | gefitinib 0.041

CUL4A (UniProt Q13619)
inactive: alvocidib 0.003 | Tubastatin A 0.022 | [1] 0.006 | defactinib -0.012 | [2] 0.037 | encorafenib 0.012 | [3] 0.046 | alisertib -0.007 | [4] -0.005 | gefitinib -0.004

CRELD2 isoform 5 (UniProt Q6UXH1)
inactive: alvocidib -0.001 | Tubastatin A 0.072 | [1] 0.038 | defactinib -0.006 | [2] -0.074 | encorafenib 0.03 | [3] -0.025 | alisertib 0.05 | [4] 0.005 | gefitinib -0.091

CREG1 (UniProt O75629)
inactive: alvocidib 0.058 | Tubastatin A 0.042 | [1] 0.041 | defactinib 0.029 | [2] 0.034 | encorafenib -0.003 | [3] -0.01 | alisertib -0.017 | [4] -0.024 | gefitinib -0.054

CUL7 isoform 2 (UniProt Q14999)
inactive: alvocidib 0.078 | Tubastatin A 0 | [1] -0.046 | defactinib -0.053 | [2] -0.04 | encorafenib 0.028 | [3] 0.157 | alisertib -0.009 | [4] -0.054 | gefitinib -0.194

CTBS (UniProt Q01459)
inactive: alvocidib -0.015 | Tubastatin A 0.048 | [1] -0.001 | defactinib -0.01 | [2] -0.012 | encorafenib 0.017 | [3] 0.003 | alisertib -0.024 | [4] 0.041 | gefitinib 0.003
